# Publication PMC13163806
# Sequences of proteins named here, by UniProt entry; tags and fusion partners are left off.
# UniProt Q9DCH4: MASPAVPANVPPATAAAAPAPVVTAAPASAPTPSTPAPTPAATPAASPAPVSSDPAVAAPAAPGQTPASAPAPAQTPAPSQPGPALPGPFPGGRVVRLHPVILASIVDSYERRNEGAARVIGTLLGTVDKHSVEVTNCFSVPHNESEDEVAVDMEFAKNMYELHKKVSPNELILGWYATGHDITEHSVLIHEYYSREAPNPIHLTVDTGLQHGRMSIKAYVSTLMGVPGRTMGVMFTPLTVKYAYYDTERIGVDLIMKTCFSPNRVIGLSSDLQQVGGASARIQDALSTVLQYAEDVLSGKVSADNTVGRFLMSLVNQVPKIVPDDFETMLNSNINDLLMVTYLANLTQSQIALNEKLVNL
# No constants are given. Whether binding was seen depends on the method and setting. Binding seen in cells or lysates may run through a third protein. Tags and fused reporters may be left off the sequences shown.
# Legend:
# [1] = target: T1, FLAG-PDCD4 expressed in MEFs (UniProt Q53EL6); assay: co-IP; FLAG co-IP from wild-type MEFs and S6K1 and 2 double knockout MEFs expressing FLAG-PDCD4 or FLAG-tag; Western blot
# T1 sequence: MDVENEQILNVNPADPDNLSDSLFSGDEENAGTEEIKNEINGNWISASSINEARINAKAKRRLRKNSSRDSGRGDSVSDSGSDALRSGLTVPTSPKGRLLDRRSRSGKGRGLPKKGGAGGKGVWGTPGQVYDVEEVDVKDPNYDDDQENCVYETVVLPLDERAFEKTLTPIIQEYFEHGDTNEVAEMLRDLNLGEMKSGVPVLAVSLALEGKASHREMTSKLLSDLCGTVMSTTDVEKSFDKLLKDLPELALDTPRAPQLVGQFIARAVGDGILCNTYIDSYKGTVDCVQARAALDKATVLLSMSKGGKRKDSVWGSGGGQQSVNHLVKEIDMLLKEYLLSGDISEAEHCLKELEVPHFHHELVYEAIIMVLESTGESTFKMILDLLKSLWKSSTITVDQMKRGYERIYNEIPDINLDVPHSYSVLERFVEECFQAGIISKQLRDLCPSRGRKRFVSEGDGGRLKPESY
# [2] = target: T2, PAIP1, endogenous (human (endogenous in U343)) (UniProt Q9H074); assay: co-IP; reciprocal IP: eIF3F antibody (PAIP1 antibody as negative control) on protein G Dynabeads, lysate prepared as for FLAG-immunoprecipitation (U343 transfected with FLAG-PDCD4, formaldehyde treated, RIPA), 4 h at 4 °C; Western blot
# T2 sequence: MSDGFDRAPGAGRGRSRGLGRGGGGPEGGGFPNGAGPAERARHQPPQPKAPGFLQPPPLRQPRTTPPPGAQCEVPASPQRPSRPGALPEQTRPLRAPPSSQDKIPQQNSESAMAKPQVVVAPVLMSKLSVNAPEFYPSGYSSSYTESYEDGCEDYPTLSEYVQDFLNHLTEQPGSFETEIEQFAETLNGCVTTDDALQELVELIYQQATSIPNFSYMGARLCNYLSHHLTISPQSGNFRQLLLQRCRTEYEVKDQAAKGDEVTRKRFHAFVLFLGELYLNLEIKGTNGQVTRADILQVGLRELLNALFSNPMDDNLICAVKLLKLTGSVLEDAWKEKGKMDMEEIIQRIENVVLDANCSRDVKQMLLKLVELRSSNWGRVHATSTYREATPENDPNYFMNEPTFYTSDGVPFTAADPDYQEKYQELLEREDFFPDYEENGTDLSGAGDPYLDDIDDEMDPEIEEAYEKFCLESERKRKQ
Molecule,binding [1],binding [2]
"eIF3F, endogenous in MEFs (from UniProt Q9DCH4 1-361)",no binding,
"FLAG-PDCD4 expressed in U343 cells (protein, UniProt Q53EL6 1-469) MDVENEQILNVNPADPDNLSDSLFSGDEENAGTEEIKNEINGNWISASSINEARINAKAKRRLRKNSSRDSGRGDSVSDSGSDALRSGLTVPTSPKGRLLDRRSRSGKGRGLPKKGGAGGKGVWGTPGQVYDVEEVDVKDPNYDDDQENCVYETVVLPLDERAFEKTLTPIIQEYFEHGDTNEVAEMLRDLNLGEMKSGVPVLAVSLALEGKASHREMTSKLLSDLCGTVMSTTDVEKSFDKLLKDLPELALDTPRAPQLVGQFIARAVGDGILCNTYIDSYKGTVDCVQARAALDKATVLLSMSKGGKRKDSVWGSGGGQQSVNHLVKEIDMLLKEYLLSGDISEAEHCLKELEVPHFHHELVYEAIIMVLESTGESTFKMILDLLKSLWKSSTITVDQMKRGYERIYNEIPDINLDVPHSYSVLERFVEECFQAGIISKQLRDLCPSRGRKRFVSEGDGGRLKPESY",,no binding
